# Library screening results

Chains of the proteins cited; added tags and fusions are not shown.
UniProt E9BF75, entry or part of it: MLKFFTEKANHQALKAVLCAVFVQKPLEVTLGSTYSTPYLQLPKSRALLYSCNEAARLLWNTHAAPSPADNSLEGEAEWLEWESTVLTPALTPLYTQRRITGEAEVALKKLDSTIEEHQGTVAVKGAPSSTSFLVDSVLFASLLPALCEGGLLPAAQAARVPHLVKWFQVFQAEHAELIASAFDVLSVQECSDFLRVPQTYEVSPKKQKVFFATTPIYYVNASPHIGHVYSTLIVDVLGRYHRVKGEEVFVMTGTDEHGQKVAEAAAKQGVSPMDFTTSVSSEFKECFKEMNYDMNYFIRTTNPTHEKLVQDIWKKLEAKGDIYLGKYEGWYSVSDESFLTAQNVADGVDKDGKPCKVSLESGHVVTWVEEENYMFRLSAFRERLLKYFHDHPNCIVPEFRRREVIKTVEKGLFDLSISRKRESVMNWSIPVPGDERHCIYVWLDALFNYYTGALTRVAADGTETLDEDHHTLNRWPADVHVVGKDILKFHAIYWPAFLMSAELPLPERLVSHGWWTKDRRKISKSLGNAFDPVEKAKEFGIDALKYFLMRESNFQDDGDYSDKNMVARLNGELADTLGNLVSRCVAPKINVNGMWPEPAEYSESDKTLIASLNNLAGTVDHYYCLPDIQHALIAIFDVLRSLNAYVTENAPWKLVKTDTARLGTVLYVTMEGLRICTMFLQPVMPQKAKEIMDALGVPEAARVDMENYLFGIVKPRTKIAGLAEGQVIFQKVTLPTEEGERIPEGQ

Measurements from “University of Dundee, Small-Polar-MMV Screening Library” (2021), ChEMBL document CHEMBL3988442.

LdMetRS: 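Primary screen of methionyl-tRNA synthetase; the read-out is not stated. Target: Methionyl-tRNA synthetase (putative), Leishmania donovani (UniProt E9BF75). The test concentration is not given. The values are filed as inhibition. About 68,000 compounds were tested under these conditions; 0.035% (about 24) showed 50% or more at least once.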
Mtb heat-shock: 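Assay on Mycobacterium tuberculosis, filed only as a heat shock assay from Cornell; the read-out is not stated. The concentration is filed as 10 mM, unlikely as a test dose, so the dose is not known. Direction is inferred from retests: higher values go with stronger inhibition. Of about 69,000 compounds tested this way, about 930 (1.4%) reached 50% or more in at least one test.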

All values are in %. How 0% and 100% were set is not recorded. Most values in the screen are low, and negative values occur. The compounds are a random part of those screened. A dash means the value is not listed here; it may have been measured.

structure,LdMetRS,Mtb heat-shock
CNCC(=O)N1CCC(c2ccnc(Nc3ccc(C)cn3)n2)C1.Cl (stereo not given),-,-13.56
Cc1nc(C)n(CC2CCCN(Cc3noc(C)n3)C2)n1 (stereo not given),20.51,-2.755
CC(=O)c1ccc(Cl)c(Cl)c1OCC(=O)NC(C)C,23.74,-12.89
NC(=O)C1CCN(CCCc2ccc(C(F)(F)F)cc2)CC1,5.108,-23.6
Cc1cc(N2CCC(c3nccn3Cc3cscn3)CC2)ccn1,15.08,-35.05
Cc1ccc(CNC(=O)c2nc3c(o2)CN(C(=O)c2cccnc2)C3)o1.O=C(O)C(F)(F)F,-,2.686
CC(OCC1CC1)C(=O)NCc1ccc(Cn2ccnc2)cc1 (stereo not given),7.219,-4.813
O=C(O)Cn1ccc(=O)c2cc(Cl)ccc21,14.52,63.91
CC(C)C1CN(Cc2nccn2C)CCC(=O)N1CC1CC1 (stereo not given),7.474,-39.21
CC(NCc1cnc(N2CCOCC2)s1)c1ccc(Cl)s1 (stereo not given),17.09,-1.678
CCCN(CC(F)F)C(=O)CCc1c(C)nc2cc(O)nn2c1C,14.11,-16.42
Cc1cccc(C(C)C)c1NC(=O)CN(C)C(C)c1nccs1 (stereo not given),7.062,-14.39
CC(C)(C)c1cnc(CN(Cc2cccnc2)CC2CCCO2)o1 (stereo not given),-25.74,13.01
Cc1nc(NC2CCCCC2)cc(C2CCCNC2)n1.Cl (stereo not given),-,-18.07
Cc1cc(C(=O)NCC2CCCO2)c(C)n1-c1cccnc1 (stereo not given),13.61,-18.57
CCNC(=O)CN1CCCC(c2ccc(C(=O)O)cc2)C1 (stereo not given),5.722,-25.78
Cc1cccc(OCC2CCCN(C(=O)Cn3ccccc3=O)C2)c1 (stereo not given),17.98,11.71
COC(=O)CCC(=O)NC(C)Cc1ccccc1Br (stereo not given),13.87,-9.722
CC(C)CN1C(=O)C2(CCN(Cc3ccoc3)C2)c2ccccc21 (stereo not given),7.285,-
CCc1nc2ccccc2c(=O)n1CC1(O)CCN(S(C)(=O)=O)CC1,15.41,-
CS(=O)(=O)N1CCCCCC1c1cc(-c2ccc(F)cc2)no1 (stereo not given),-2.188,4.028
O=C(c1cncc(NCC2COc3ccccc3C2)n1)N1CCOCC1 (stereo not given),15.72,-9.882
O=C(CCCn1cccn1)N1CCCC(n2cncn2)C1 (stereo not given),0,-2.187
O=C(CC1COCCN1C(=O)c1cscn1)c1ccccc1 (stereo not given),7.692,-4.635
O=C(O)C(F)(F)F.[H][C@@]12CCN(c3ccc(C)nn3)[C@]1([H])CC[C@@H](C(=O)NCc1ccco1)O2,-,-36.19
CC(C)N(CCNC(=O)c1n[nH]c2ccccc12)C(C)C,13.35,27.28
O=C(O)C(F)(F)F.[H][C@]12CC[C@@]3(N=C(CC)N(C)C3=O)[C@@]1([H])CN(Cc1ccc(C)cc1)C2,-,45.96
C[C@@H]1C[C@@H]2CCN(Cc3nccs3)C[C@H]2O1,16.67,-
[H][C@@]12CS(=O)(=O)C[C@]1([H])N(Cc1cc(Cl)cc(Cl)c1)CCN2CC1CC1,-,99.37
Cc1cc(C)n(CC(C)NC2CCN(Cc3cccc(O)c3)CC2)n1 (stereo not given),9.497,-17.36
CCOc1ccc(C(F)(F)F)cc1NCc1cc(C)on1,14.95,-43.98
O=C(Nc1ccc(N2CCCCC2)cn1)C1CCCN1C(=O)C1CC1 (stereo not given),6.959,6.47
COCCN(CCc1ccccc1)Cc1nc2c(cnn2C)c(=O)[nH]1,16.34,50.74
Cc1cc(C(=O)N2CCCC(n3cncn3)C2)on1 (stereo not given),14.75,-38.79
[H][C@@]12CCCC[C@]1(O)CCN(C(=O)c1cc(CN(CC)CC)oc1C)C2,-,1.214
CC(C)C1CN(S(=O)(=O)c2cccc(C#N)c2)CCS1 (stereo not given),10.29,-23.94
Cn1ccc(NC(=O)CN2CCN(C3CCCC3)C(=O)C2)n1,9.302,-2.471
O=C(N1CCCC1)N1CC[C@H]2[C@H]1CCN2c1ncccn1,11.76,-
Cc1nccc([C@@H]2C[C@@H]3CCN(Cc4cccs4)C[C@H]3O2)n1,14.38,-
CN(C)CC(=O)N1CCOCC(Cc2ccccn2)C1 (stereo not given),3.15,10.48
O=C(c1ccccc1)C1CCN(Cc2cc3c(cc2O)CCC3)CC1,9.574,20.37
Cc1csc(N2CCN(Cc3cscn3)CC2C)n1 (stereo not given),3.846,-7.278
CC(=O)N1CCC(C(=O)N(CC(F)F)c2cccc(Cl)c2)CC1,6.183,-20.51
O=C1Nc2ccccc2/C1=C1\CCCCN1,6.452,1.747
COc1cccc(CN(C)C(=O)CSc2ccc3c(c2)OCCO3)c1,4.225,-2.759
O=C(O)C(F)(F)F.O=C(c1cc[nH]n1)N1CCC(F)(F)C2(CCN(c3ccccn3)C2)C1 (stereo not given),-,-1.254
c1ccc(-c2nnc3sc(CCN4CCCC4)nn23)cc1,17.62,6.905
CC1(C)CC1(C(=O)N1CC(c2cccnc2)C1)c1ccc(F)cc1 (stereo not given),2.736,-13.36
CC1CCc2nn(CCNC(=O)Cc3cccs3)c(=O)cc2C1 (stereo not given),11.17,-5.33
Cc1nc2c(c(=O)[nH]1)CN(C(=O)CC[C@@H]1CCCN3CCCC[C@H]13)C2,5.322,-
c1cncc(CN(Cc2ccc3c(c2)OCCO3)CC2CCCO2)c1 (stereo not given),9.763,-1.66
CN(Cc1nnc(-c2cccs2)o1)C(C(N)=O)c1cccc(F)c1 (stereo not given),17.49,-5.679
[H][C@@]12CCN(C(=O)Cc3cccc(OC)c3)[C@]1([H])CCC(=O)N2CC,-,1.457
CNC(=O)[C@H]1C[C@H]2OCC[C@H]2N(Cc2ccc(F)cc2)C1,10.64,-
COc1c(CNC2CCOc3c(Cl)cccc32)c(C(C)C)nn1C (stereo not given),7.263,-12.91
O=C(O)C(F)(F)F.O=C(O)C(F)(F)F.[H][C@]12CCN(c3ncccn3)CC[C@@]1([H])S(=O)(=O)CCN2Cc1cccnc1,-,-11.92
Cc1cc(NCCNS(=O)(=O)c2cccc(Cl)c2)nc(C)n1,6.069,5.118
CCOC(=O)c1cnn(-c2cc(Oc3cccc(C)c3)ncn2)c1N,-45.86,6.446

The first 6 entries again:

* CNCC(=O)N1CCC(c2ccnc(Nc3ccc(C)cn3)n2)C1.Cl (stereo not given) | Mtb heat-shock: -13.56%
* Cc1nc(C)n(CC2CCCN(Cc3noc(C)n3)C2)n1 (stereo not given) | LdMetRS: 20.51%; Mtb heat-shock: -2.755%
* CC(=O)c1ccc(Cl)c(Cl)c1OCC(=O)NC(C)C | LdMetRS: 23.74%; Mtb heat-shock: -12.89%
* NC(=O)C1CCN(CCCc2ccc(C(F)(F)F)cc2)CC1 | LdMetRS: 5.108%; Mtb heat-shock: -23.6%
* Cc1cc(N2CCC(c3nccn3Cc3cscn3)CC2)ccn1 | LdMetRS: 15.08%; Mtb heat-shock: -35.05%
* Cc1ccc(CNC(=O)c2nc3c(o2)CN(C(=O)c2cccnc2)C3)o1.O=C(O)C(F)(F)F | Mtb heat-shock: 2.686%